Laboratory results from ChEMBL document CHEMBL1909046, “DrugMatrix in vitro pharmacology data”.

By UniProt entry, the sequences of proteins in these tests, tags left out. Where a name states a change or a piece, a line headed by the entry shows the natural chain unless it says otherwise.
UniProt P30988: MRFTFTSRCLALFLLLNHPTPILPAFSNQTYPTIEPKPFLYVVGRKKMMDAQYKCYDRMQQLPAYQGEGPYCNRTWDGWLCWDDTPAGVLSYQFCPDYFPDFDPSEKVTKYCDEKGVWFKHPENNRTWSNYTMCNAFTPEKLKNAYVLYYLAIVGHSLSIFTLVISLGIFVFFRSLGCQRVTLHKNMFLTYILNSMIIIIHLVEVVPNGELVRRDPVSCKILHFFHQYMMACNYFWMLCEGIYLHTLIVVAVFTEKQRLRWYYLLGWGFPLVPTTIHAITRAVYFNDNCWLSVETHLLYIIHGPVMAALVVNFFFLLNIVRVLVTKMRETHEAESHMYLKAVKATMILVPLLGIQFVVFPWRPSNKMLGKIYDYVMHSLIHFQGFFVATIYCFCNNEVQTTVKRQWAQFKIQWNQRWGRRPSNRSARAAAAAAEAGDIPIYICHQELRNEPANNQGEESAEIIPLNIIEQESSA
UniProt Q99720, whole entry: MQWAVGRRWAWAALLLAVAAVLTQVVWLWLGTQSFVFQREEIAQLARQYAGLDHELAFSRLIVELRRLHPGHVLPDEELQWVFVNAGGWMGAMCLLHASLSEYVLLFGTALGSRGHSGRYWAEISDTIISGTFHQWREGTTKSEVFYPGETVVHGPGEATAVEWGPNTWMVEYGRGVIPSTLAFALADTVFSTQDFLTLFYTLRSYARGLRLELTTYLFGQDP
UniProt P43140: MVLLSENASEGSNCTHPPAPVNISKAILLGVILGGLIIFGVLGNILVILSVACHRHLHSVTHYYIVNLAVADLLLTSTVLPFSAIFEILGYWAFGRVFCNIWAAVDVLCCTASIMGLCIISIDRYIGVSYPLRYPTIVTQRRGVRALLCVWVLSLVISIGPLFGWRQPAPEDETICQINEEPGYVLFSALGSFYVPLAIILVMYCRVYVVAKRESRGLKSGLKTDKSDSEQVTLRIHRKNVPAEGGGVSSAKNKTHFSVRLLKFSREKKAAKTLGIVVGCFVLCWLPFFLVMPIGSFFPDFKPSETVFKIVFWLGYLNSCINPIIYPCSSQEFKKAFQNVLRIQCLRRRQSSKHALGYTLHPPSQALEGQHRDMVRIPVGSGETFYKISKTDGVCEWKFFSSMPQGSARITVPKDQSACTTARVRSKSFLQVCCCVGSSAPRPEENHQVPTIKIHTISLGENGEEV
UniProt P35462, whole entry: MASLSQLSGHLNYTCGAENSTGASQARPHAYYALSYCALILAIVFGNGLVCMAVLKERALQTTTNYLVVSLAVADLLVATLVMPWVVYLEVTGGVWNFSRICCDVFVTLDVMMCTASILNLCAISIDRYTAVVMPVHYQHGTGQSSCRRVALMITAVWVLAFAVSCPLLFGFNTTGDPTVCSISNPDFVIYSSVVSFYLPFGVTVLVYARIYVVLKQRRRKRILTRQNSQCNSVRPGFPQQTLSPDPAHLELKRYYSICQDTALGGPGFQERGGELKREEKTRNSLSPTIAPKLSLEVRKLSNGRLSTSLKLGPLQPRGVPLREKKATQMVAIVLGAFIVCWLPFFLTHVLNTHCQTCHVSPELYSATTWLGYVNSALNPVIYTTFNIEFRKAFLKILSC
UniProt P08246: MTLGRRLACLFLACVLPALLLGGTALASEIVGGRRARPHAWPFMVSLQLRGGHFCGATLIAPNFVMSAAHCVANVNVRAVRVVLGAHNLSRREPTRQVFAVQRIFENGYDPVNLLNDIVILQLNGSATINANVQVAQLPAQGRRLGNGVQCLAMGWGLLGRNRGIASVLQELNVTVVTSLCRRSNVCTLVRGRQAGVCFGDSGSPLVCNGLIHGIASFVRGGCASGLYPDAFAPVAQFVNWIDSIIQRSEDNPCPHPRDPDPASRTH
UniProt P17948, whole entry: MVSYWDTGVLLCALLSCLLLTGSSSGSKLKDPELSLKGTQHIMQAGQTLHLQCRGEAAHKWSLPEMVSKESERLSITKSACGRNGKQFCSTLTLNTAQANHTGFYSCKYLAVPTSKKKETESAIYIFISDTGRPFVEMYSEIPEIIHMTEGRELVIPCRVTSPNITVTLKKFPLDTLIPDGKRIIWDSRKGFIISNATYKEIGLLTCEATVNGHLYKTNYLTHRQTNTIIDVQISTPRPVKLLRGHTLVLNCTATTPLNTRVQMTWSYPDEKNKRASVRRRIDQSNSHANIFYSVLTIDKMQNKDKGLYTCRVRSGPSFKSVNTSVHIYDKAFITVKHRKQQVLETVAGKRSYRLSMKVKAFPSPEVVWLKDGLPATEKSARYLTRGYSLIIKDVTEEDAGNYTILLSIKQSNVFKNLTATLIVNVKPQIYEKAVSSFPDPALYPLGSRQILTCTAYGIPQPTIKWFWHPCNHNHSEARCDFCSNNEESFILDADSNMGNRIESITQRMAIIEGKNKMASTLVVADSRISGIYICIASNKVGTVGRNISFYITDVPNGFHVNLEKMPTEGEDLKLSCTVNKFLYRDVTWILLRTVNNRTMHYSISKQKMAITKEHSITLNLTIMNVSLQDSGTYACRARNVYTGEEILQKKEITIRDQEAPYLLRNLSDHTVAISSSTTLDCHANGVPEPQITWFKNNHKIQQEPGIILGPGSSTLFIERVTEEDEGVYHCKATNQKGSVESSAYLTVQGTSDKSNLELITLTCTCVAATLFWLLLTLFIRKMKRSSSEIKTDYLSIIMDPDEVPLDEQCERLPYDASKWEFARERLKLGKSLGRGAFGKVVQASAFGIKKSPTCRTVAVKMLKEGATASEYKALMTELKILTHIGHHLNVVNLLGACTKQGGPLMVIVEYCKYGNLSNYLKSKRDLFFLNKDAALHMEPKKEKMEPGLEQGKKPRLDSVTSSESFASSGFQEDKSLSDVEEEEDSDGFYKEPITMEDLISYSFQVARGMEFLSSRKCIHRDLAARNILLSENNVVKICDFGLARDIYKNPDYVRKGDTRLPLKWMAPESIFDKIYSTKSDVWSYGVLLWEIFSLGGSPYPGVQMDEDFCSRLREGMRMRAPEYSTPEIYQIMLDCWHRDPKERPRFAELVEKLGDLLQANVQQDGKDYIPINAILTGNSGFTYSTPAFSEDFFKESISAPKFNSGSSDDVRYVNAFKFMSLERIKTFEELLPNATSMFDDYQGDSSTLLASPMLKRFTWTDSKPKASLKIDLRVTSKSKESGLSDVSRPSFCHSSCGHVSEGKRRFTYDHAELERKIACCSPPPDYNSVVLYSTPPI
UniProt P08575: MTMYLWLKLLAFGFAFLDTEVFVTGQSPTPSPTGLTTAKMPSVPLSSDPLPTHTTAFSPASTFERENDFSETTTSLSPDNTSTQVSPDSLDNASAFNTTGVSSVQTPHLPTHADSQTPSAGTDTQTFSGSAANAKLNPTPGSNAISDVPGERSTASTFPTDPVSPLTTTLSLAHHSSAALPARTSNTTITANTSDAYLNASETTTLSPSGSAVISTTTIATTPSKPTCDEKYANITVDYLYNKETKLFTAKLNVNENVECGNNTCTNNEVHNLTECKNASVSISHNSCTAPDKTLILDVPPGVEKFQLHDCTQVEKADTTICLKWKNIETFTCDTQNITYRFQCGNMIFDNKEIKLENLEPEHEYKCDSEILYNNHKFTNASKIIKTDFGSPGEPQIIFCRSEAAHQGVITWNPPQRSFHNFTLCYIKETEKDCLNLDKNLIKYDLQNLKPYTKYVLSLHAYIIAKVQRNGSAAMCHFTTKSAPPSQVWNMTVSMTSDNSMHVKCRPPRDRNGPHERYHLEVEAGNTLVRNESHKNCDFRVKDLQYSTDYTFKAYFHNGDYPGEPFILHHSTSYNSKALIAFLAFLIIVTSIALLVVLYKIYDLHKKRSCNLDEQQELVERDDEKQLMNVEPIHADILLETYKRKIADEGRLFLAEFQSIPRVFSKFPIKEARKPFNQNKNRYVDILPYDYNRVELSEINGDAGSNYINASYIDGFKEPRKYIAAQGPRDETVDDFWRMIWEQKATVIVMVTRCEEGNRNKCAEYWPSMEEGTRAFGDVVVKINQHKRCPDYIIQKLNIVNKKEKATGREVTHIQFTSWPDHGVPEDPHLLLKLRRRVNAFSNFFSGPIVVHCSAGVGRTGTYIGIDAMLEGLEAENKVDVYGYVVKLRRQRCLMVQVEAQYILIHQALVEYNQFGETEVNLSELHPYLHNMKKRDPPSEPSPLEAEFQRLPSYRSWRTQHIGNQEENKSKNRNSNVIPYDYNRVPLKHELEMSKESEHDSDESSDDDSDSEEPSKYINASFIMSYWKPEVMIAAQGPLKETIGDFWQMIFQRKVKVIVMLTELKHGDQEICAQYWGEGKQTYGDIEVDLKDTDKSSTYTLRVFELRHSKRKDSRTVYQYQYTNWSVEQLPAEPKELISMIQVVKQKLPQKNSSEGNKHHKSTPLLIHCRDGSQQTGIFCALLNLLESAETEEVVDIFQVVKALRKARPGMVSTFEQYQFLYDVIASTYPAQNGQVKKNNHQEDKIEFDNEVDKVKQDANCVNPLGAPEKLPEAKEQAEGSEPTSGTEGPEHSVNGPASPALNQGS
UniProt P28564, whole entry: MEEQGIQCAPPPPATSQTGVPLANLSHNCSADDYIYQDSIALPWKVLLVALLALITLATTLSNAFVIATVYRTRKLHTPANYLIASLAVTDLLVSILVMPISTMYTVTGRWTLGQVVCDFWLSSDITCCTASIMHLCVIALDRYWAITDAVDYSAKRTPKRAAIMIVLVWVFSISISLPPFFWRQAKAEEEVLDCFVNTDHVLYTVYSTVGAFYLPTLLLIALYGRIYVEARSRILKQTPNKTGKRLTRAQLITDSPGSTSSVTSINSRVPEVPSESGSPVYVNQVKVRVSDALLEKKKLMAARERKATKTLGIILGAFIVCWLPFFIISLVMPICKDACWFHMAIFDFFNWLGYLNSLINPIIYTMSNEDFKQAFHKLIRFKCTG
UniProt P28482, whole entry: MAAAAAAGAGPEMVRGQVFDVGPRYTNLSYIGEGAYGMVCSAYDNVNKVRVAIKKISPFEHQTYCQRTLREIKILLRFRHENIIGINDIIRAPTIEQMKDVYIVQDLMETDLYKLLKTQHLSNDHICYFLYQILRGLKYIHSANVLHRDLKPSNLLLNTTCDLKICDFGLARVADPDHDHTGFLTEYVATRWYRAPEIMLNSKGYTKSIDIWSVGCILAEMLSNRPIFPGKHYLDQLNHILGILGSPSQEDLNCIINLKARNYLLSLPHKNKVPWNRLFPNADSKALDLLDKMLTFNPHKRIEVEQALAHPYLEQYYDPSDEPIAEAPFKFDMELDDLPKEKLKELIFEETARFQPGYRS
UniProt P24557: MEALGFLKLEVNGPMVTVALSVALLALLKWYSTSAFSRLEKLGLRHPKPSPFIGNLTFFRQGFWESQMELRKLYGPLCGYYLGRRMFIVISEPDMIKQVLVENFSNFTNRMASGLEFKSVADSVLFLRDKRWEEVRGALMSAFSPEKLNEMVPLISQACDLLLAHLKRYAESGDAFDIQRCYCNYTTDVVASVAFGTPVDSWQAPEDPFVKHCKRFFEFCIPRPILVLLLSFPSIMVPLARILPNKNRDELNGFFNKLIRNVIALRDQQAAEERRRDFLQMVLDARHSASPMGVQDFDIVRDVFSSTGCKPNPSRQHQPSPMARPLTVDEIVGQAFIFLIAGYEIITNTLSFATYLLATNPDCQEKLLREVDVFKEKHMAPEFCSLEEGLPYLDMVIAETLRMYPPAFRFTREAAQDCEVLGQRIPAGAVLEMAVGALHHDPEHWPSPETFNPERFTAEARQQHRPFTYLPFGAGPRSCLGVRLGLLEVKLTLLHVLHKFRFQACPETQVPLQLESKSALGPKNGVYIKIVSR
UniProt A6XA80: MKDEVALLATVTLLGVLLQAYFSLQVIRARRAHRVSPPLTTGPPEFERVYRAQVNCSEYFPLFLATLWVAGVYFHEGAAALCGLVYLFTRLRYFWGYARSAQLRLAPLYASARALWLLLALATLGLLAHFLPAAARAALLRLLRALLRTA
UniProt P25103, whole entry: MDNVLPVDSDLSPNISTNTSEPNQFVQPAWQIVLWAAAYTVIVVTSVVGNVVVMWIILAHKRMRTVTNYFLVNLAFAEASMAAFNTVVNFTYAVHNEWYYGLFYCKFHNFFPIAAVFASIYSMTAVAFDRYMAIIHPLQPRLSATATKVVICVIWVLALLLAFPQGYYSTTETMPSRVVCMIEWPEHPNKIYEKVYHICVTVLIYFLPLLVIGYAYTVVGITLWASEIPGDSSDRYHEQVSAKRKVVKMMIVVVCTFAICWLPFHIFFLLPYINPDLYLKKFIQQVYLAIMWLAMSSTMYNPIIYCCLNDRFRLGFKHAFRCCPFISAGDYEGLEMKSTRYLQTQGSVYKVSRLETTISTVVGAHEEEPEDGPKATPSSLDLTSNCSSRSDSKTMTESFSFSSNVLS
UniProt P08311: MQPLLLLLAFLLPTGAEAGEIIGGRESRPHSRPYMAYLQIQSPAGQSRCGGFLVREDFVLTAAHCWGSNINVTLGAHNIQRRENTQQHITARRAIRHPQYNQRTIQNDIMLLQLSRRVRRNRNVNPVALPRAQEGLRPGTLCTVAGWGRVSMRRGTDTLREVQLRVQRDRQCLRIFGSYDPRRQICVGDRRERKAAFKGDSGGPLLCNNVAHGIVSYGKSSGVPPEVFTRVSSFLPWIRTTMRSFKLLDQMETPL

How the values were obtained:
[1] = target: Calcitonin receptor (Homo sapiens, UniProt P30988); format: cell membranes, Membrane; details: t47d; note: in other assays of this panel Not Active means under 50% inhibition at 10 µM
[2] = target: Sigma non-opioid intracellular receptor 1 (Homo sapiens, UniProt Q99720); assay: DRUGMATRIX: Sigma1 radioligand binding (ligand: [3H] Haloperidol); format: cell membranes, Jurkat, Membrane; details: Not Active = under 50% inhibition at 10 µM
[3] = target: Mu-type opioid receptor (Homo sapiens, UniProt P35372); assay: DRUGMATRIX: Opiate mu (OP3, MOP) radioligand binding (ligand: [3H] Diprenorphine); format: cell membranes, Membrane; details: cho-k1; Not Active = under 50% inhibition at 10 µM
[4] = target: Alpha-1A adrenergic receptor (Rattus norvegicus, UniProt P43140); assay: DRUGMATRIX: Alpha-1A adrenergic receptor radioligand binding (ligand: prazosin); format: cell membranes, Wistar, Submaxillary gland, Membrane; details: Not Active = under 50% inhibition at 10 µM
[5] = target: Kappa-type opioid receptor (Homo sapiens, UniProt P41145); assay: DRUGMATRIX: Opiate kappa (OP2, KOP) radioligand binding (ligand: [3H] Diprenorphine); format: cell membranes, Membrane; details: hek293; Not Active = under 50% inhibition at 10 µM
[6] = target: D(3) dopamine receptor (Homo sapiens, UniProt P35462); assay: DRUGMATRIX: Dopamine D3 radioligand binding (ligand: [3H] Spiperone); format: cell membranes, CHO, Membrane; details: cho
[7] = target: Nitric oxide synthase, inducible (Mus musculus, UniProt P29477); set-up: species or system Escherichia coli;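 note: inhibition of iNOS enzyme activity measured with L-arginine as substrate; in other assays of this panel Not Active means under 50% inhibition at 10 µM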
[8] = target: Caspase-1 (Homo sapiens, UniProt P29466); set-up: species or system Escherichia coli;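 note: Caspase-1 enzyme inhibition assay with a peptide substrate; in other assays of this panel Not Active means under 50% inhibition at 10 µM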
[9] = target: Cysteinyl leukotriene receptor 1 (Homo sapiens, UniProt Q9Y271); format: cell membranes, Membrane; details: cho-k1; note: in other assays of this panel Not Active means under 50% inhibition at 10 µM
[10] = target: Acetylcholinesterase (Homo sapiens, UniProt P22303); assay: DRUGMATRIX: Acetylcholinesterase enzyme inhibition (substrate: acetylthiocholine); format: cell-based, HEK293; details: Not Active = under 50% inhibition at 10 µM
[11] = target: Neuropeptide Y receptor type 2 (Homo sapiens, UniProt P49146); format: cell membranes, Membrane; details: kan-ts; note: in other assays of this panel Not Active means under 50% inhibition at 10 µM
[12] = target: Mitogen-activated protein kinase 3 (Homo sapiens, UniProt P27361); assay: DRUGMATRIX: Protein Serine/Threonine Kinase, ERK1 enzyme inhibition (substrate: Myelin Basic Protein); set-up: species or system Escherichia coli; details: Not Active = under 50% inhibition at 10 µM
[13] = target: Neutrophil elastase (Homo sapiens, UniProt P08246); format: tissue-based
[14] = target: Endothelin-1 receptor (Homo sapiens, UniProt P25101); format: cell membranes, Membrane; details: cho-k1; note: in other assays of this panel Not Active means under 50% inhibition at 10 µM
[15] = target: Vascular endothelial growth factor receptor 1 (Homo sapiens, UniProt P17948); format: cell-based; details: huvec; note: in other assays of this panel Not Active means under 50% inhibition at 10 µM
[16] = target: Receptor-type tyrosine-protein phosphatase C (Homo sapiens, UniProt P08575); set-up: species or system Escherichia coli
[17] = target: 5-hydroxytryptamine receptor 1B (Rattus norvegicus, UniProt P28564); format: cell membranes, Wistar, Cerebral cortex, Membrane; note: in other assays of this panel Not Active means under 50% inhibition at 10 µM
[18] = target: T1, Alpha-1B adrenergic receptor (Rattus norvegicus, UniProt P15823); assay: DRUGMATRIX: Alpha-1B adrenergic receptor radioligand binding (ligand: prazosin); format: cell membranes, Wistar, Liver, Membrane; details: Not Active = under 50% inhibition at 10 µM
T1 sequence (P15823 whole entry): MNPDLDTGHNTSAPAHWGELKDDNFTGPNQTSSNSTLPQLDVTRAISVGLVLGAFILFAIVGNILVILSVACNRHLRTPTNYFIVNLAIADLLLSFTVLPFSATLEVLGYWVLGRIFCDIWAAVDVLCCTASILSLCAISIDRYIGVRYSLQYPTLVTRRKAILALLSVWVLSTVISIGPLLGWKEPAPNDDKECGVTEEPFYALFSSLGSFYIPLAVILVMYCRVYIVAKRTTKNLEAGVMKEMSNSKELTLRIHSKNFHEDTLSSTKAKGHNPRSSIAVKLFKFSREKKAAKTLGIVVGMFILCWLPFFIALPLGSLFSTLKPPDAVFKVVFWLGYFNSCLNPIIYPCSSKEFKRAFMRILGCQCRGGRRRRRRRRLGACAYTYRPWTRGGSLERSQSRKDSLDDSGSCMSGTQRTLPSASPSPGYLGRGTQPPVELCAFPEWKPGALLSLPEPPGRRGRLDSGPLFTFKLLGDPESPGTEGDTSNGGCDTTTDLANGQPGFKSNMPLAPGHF

[19] = target: Mitogen-activated protein kinase 1 (Homo sapiens, UniProt P28482); assay: DRUGMATRIX: Protein Serine/Threonine Kinase, ERK2 enzyme inhibition (substrate: Myelin Basic Protein); set-up: species or system Escherichia coli; details: Not Active = under 50% inhibition at 10 µM
[20] = target: Thromboxane-A synthase (Homo sapiens, UniProt P24557); format: tissue-based; details: platelet
[21] = target: Leukotriene C4 synthase (Cavia porcellus, UniProt A6XA80); format: tissue-based, Lung
[22] = target: D(4) dopamine receptor (Homo sapiens, UniProt P21917); assay: DRUGMATRIX: Dopamine D4.2 radioligand binding (ligand: [3H] Spiperone); format: cell membranes, Membrane; details: cho-k1; Not Active = under 50% inhibition at 10 µM
[23] = target: Prostaglandin G/H synthase 1 (Homo sapiens, UniProt P23219); format: tissue-based; details: platelet
[24] = target: Aldo-keto reductase family 1 member B1 (Rattus norvegicus, UniProt P07943); format: tissue-based, Lens of camera-type eye
[25] = target: Protein kinase C alpha type (Homo sapiens, UniProt P17252); format: cell-based; details: sf9
[26] = target: C-X-C chemokine receptor type 1 (Homo sapiens, UniProt P25024); note: in other assays of this panel Not Active means under 50% inhibition at 10 µM
[27] = target: Interstitial collagenase (Homo sapiens, UniProt P03956); format: tissue-based, Rheumatoid synovial fibroblasts
[28] = target: Substance-P receptor (Homo sapiens, UniProt P25103); format: cell membranes, Membrane; details: cho; note: in other assays of this panel Not Active means under 50% inhibition at 10 µM
[29] = target: C-C chemokine receptor type 5 (Homo sapiens, UniProt P51681); format: cell membranes, Membrane; details: hek293; note: in other assays of this panel Not Active means under 50% inhibition at 10 µM
[30] = target: Cathepsin G (Homo sapiens, UniProt P08311); format: tissue-based; details: neutrophil
[31] = target: C-C chemokine receptor type 4 (Homo sapiens, UniProt P51679); format: cell membranes, Membrane; details: chem-1; note: in other assays of this panel Not Active means under 50% inhibition at 10 µM
[32] = target: 3-hydroxy-3-methylglutaryl-coenzyme A reductase (Homo sapiens, UniProt P04035); set-up: species or system Escherichia coli
[33] = target: Neuropeptide Y receptor type 1 (Homo sapiens, UniProt P25929); format: cell membranes, Membrane; details: sk-n-mc; note: in other assays of this panel Not Active means under 50% inhibition at 10 µM

SMILES	IC50 [1]	IC50 [3]	IC50 [4]	IC50 [5]	IC50 [6]	IC50 [7]	IC50 [8]	IC50 [9]	IC50 [11]	IC50 [12]	IC50 [13]	IC50 [14]	IC50 [15]	IC50 [16]	IC50 [17]	IC50 [18]	IC50 [19]	IC50 [20]	IC50 [21]	IC50 [22]	further results
CC(C)(C)CC(C)(C)c1ccc(OCCOCC[N+](C)(C)Cc2ccccc2)cc1.[Cl-] [BENZETHONIUM CHLORIDE]	Not Active	Not Active	Not Active	Not Active	Not Active	Not Active	Not Active	Not Active	Not Active	Not Active	Not Active	Not Active	Not Active	Not Active	Not Active	Not Active	Not Active	Not Active	Not Active	Not Active	IC50 ([2]; jurkat): Not Active; IC50 ([10]; read-out: IC50): 2250 nM; Ki ([10]; hek293): Note: corresponding IC50 reported as Active; IC50 [23]: Not Active; IC50 [24]: Not Active; IC50 [25]: Not Active; IC50 [26]: Not Active; IC50 [27]: Not Active; IC50 [28]: Not Active; IC50 [29]: Not Active; IC50 [30]: Not Active; IC50 [31]: Not Active; IC50 [32]: Not Active; IC50 [33]: Not Active
CCC(C)C(C(=O)OCC[N+](C)(CC)CC)c1ccccc1.[Br-] (stereo not drawn) [VALETHAMATE BROMIDE]	Not Active	Not Active	Not Active	Not Active	Not Active	Not Active	Not Active	Not Active	Not Active	Not Active	Not Active	Not Active	Not Active	Not Active	Not Active	Not Active	Not Active	Not Active	Not Active	Not Active	Ki [2]: 200 nM; IC50 ([2]; read-out: IC50): 475 nM; IC50 ([10]; hek293): Not Active; IC50 [23]: Not Active; IC50 [24]: Not Active; IC50 [25]: Not Active; IC50 [26]: Not Active; IC50 [27]: Not Active; IC50 [28]: Not Active; IC50 [29]: Not Active; IC50 [30]: Not Active; IC50 [31]: Not Active; IC50 [32]: Not Active; IC50 [33]: Not Active
